Assay results as given in the supplement of paper PMC7666118.
This is one part of the list.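 How the source made its calls: active = dose-dependent thermal stabilisation significant by F-test of dose-response against flat model at 10% FDR; inactive = not significant.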

Sequences of proteins named here, by UniProt entry; tags and fusion partners are left off. A change or cut given only in a name is not applied to a line headed by its entry.
UniProt Q5JTV8: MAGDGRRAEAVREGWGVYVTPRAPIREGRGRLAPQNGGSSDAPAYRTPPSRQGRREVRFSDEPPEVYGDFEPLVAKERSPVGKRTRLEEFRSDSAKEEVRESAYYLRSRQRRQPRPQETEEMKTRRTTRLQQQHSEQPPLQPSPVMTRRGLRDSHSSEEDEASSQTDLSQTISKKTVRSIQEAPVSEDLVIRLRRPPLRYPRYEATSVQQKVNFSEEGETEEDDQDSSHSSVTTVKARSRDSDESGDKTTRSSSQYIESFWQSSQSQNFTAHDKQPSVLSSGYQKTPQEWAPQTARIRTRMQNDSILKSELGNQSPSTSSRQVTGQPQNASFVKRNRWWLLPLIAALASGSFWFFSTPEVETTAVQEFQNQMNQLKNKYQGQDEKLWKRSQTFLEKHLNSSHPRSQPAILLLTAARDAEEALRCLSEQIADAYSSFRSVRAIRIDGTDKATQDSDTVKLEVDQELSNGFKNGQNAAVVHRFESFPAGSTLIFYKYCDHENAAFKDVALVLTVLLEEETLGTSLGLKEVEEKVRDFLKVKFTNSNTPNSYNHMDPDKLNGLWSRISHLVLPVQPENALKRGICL
UniProt Q86VY4: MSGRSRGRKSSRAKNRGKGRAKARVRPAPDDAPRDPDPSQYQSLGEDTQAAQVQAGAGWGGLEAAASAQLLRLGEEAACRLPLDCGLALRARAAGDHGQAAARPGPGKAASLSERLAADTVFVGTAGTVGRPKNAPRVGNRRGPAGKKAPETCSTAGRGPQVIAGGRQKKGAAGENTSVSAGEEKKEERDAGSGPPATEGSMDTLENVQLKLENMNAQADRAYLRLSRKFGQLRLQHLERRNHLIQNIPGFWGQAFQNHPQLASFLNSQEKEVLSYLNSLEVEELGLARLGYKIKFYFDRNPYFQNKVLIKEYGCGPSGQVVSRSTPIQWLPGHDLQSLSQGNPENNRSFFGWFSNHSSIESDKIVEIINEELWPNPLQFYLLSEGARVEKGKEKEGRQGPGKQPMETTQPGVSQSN
UniProt P22314: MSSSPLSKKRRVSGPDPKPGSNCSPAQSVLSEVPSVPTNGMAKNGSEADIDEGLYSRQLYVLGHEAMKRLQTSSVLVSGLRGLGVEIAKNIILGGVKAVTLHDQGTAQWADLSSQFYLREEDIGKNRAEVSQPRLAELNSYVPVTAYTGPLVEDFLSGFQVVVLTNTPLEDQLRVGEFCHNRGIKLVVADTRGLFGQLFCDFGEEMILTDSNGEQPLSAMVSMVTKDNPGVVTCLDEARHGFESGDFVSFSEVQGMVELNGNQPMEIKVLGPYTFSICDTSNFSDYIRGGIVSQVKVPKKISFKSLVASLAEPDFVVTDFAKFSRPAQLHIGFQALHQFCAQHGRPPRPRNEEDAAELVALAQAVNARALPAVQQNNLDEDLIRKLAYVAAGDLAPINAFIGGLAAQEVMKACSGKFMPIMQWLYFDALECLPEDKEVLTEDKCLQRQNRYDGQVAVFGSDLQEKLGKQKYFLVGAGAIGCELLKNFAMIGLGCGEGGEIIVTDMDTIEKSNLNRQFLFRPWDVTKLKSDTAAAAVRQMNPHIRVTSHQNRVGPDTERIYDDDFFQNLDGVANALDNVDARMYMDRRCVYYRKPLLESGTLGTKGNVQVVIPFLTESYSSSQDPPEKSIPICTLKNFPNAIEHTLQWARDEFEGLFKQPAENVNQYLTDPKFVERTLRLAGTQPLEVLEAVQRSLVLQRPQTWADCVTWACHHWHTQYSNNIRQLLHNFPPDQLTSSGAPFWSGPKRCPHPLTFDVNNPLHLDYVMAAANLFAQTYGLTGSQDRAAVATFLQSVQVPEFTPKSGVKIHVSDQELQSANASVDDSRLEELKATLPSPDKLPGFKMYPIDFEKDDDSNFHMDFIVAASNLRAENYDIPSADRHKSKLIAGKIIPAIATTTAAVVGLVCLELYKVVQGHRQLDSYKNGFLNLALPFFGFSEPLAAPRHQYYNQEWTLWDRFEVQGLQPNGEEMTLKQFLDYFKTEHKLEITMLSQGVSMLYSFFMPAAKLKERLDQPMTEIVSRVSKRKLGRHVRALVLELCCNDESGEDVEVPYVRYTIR
UniProt Q86UE8, whole entry, looked up: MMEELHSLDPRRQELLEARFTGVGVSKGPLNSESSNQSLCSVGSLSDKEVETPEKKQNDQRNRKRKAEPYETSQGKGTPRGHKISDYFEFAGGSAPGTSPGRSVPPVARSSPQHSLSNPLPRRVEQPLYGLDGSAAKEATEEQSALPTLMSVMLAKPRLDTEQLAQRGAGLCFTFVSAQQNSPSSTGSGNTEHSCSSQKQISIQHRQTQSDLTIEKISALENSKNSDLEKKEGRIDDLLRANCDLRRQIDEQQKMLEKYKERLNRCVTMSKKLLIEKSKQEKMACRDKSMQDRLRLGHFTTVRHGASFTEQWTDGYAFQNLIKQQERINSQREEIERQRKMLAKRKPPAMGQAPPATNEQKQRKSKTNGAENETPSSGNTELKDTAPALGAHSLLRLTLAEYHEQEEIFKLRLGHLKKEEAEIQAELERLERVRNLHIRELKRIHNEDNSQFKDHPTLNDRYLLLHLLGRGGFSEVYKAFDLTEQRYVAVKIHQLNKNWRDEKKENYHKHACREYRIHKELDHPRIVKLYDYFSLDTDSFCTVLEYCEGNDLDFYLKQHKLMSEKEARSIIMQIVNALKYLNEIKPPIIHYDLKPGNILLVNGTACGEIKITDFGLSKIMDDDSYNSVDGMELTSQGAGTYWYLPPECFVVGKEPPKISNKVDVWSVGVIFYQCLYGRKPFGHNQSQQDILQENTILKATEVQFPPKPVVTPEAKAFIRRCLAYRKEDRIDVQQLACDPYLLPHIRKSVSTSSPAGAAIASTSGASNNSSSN
UniProt O95379: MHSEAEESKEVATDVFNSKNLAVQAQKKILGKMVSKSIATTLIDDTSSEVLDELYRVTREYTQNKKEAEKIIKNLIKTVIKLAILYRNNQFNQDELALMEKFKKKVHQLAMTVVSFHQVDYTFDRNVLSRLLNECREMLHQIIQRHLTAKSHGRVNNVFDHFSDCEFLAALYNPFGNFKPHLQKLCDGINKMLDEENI
UniProt P51580: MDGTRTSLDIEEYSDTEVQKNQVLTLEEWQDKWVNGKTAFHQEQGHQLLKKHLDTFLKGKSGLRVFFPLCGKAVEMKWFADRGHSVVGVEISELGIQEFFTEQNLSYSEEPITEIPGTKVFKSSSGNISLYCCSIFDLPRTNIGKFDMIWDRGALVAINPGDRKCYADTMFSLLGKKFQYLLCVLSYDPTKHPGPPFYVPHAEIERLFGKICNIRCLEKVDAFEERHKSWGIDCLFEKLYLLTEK
UniProt Q15714: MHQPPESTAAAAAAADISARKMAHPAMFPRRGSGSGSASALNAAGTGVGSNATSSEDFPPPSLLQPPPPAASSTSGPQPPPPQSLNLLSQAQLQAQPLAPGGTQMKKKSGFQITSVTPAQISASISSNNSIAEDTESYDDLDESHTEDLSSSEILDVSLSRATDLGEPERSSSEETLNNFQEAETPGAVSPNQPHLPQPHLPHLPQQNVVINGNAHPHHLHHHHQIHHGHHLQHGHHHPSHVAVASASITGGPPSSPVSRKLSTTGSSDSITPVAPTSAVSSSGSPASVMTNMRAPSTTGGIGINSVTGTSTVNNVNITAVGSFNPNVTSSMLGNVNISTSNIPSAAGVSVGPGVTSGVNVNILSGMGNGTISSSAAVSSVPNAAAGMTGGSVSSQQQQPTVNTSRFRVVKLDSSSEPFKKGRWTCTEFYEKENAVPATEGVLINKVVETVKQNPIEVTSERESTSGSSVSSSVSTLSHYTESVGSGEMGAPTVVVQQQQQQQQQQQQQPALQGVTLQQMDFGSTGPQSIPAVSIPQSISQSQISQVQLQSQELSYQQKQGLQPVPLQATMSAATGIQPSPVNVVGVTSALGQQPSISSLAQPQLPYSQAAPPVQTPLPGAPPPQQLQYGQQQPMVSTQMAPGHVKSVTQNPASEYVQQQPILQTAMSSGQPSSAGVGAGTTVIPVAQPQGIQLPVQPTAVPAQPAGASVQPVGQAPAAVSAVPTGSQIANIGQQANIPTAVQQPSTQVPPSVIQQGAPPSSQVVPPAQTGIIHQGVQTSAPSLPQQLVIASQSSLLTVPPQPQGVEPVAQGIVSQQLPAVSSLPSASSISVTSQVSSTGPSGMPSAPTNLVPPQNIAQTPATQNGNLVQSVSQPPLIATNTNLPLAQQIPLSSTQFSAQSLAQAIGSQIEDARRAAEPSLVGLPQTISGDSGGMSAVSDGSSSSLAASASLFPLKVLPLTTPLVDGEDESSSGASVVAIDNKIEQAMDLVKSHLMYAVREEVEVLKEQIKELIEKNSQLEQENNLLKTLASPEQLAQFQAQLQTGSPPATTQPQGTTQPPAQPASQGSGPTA
UniProt P02786, whole entry, looked up: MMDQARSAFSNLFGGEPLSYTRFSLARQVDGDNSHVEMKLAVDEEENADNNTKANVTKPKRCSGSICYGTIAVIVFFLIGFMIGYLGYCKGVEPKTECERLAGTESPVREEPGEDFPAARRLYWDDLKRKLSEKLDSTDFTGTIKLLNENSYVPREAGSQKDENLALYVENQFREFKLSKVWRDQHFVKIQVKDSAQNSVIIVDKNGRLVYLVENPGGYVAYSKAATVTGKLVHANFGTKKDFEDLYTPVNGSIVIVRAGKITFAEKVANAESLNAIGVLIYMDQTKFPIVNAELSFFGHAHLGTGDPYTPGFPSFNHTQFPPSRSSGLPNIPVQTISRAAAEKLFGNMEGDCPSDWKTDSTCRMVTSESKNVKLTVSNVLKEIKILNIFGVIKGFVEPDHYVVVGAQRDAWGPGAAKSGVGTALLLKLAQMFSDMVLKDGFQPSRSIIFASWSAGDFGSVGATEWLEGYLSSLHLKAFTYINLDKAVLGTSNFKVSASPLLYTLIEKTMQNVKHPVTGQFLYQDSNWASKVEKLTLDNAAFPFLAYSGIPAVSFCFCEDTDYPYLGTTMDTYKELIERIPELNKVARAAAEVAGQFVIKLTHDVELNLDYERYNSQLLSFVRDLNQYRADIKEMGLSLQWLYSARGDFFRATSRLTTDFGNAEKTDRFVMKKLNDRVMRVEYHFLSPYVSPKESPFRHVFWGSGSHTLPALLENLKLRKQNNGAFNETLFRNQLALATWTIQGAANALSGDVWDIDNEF
UniProt Q96DC7: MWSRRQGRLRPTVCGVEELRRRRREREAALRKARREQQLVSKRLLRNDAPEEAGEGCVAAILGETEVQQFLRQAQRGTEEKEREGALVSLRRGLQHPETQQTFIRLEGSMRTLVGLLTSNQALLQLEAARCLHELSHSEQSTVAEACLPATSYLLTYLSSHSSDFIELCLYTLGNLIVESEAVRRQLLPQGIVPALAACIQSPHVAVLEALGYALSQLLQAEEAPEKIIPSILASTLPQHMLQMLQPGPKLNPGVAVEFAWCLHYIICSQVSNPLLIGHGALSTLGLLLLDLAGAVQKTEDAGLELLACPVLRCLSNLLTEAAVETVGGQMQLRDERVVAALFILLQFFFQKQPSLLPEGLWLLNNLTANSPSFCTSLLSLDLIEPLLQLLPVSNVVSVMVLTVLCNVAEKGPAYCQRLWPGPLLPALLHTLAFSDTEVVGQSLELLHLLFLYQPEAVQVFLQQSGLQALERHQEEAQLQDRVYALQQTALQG
UniProt Q15785: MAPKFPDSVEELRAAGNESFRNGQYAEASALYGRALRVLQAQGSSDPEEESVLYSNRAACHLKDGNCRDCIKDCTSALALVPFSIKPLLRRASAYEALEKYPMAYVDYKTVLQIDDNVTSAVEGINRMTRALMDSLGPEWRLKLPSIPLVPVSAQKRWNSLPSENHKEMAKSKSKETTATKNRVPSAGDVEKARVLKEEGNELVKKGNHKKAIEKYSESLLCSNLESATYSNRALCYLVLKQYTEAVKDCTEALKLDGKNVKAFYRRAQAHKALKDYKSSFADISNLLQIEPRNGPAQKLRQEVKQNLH
UniProt Q8TBZ6: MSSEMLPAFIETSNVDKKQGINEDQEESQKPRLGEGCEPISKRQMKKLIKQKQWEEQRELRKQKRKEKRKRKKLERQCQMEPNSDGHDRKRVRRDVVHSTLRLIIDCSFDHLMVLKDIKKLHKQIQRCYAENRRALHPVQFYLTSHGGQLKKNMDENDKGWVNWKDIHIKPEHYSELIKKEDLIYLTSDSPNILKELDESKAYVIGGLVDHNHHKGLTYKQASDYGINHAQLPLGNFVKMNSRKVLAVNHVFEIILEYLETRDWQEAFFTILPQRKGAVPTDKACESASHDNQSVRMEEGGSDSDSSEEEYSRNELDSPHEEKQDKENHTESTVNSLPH
UniProt Q9NQ88: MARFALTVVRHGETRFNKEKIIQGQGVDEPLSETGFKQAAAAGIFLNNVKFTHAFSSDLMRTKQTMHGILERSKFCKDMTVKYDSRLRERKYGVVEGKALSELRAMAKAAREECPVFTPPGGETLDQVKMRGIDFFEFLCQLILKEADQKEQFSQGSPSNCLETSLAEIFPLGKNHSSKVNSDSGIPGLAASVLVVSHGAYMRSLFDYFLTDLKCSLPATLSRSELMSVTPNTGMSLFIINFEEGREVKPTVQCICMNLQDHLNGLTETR

Each target was assayed with Nc1nc2c(ncn2[C@@H]2O[C@H](COP(=O)(O)OP(=O)(O)OP(=O)(O)O)[C@@H](O)[C@H]2O)c(=O)[nH]1 (assay: dose-dependent thermal stabilisation call (2D-TPP, DLPTP, 10% FDR) (binary (1 = stabilised)); higher = stabilised by the compound). Conditions: system: Jurkat gel-filtered lysate; concentration range 1-500 µM.

dose-dependent thermal stabilisation call, inactive:
TRIO (UniProt O75962) 0, TLN2 (UniProt Q9Y4G6) 0, TOR1AIP1 (UniProt Q5JTV8) 0, TARBP1 (UniProt Q13395) 0, TUBGCP2 (UniProt Q9BSJ2) 0, TSPYL5 (UniProt Q86VY4) 0, UBA1 (UniProt P22314) 0, TLK2 (UniProt Q86UE8) 0, TMED8 (UniProt Q6PL24) 0, TRMT11 (UniProt Q7Z4G4) 0, TBC1D4 (UniProt O60343) 0, TTF2 (UniProt Q9UNY4) 0, TSSC4 (UniProt Q9Y5U2) 0, TMLHE (UniProt Q9NVH6) 0, TNFAIP8 (UniProt O95379) 0, TMEM237 (UniProt Q96Q45) 0, TPMT (UniProt P51580) 0, TSC22D1 (UniProt Q15714) 0

dose-dependent thermal stabilisation call, active:
TFRC (UniProt P02786) 1, TMCO6 (UniProt Q96DC7) 1, TERF2 (UniProt Q15554) 1, TOMM34 (UniProt Q15785) 1, TRMT10A (UniProt Q8TBZ6) 1, TTC5 (UniProt Q8N0Z6) 1, TIGAR (UniProt Q9NQ88) 1, TTI2 (UniProt Q6NXR4) 1, TLK1 (UniProt Q9UKI8) 1
